For assay [1], the target named is T1, N-terminal 108 amino acid residues of TIE1 fused to GAL4-DBD (Arabidopsis thaliana) (UniProt Q6IDB0).
T1 sequence: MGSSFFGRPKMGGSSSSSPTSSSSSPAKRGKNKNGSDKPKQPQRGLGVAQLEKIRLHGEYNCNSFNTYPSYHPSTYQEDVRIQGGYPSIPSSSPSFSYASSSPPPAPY
The assay is described as follows: two-hybrid; bait TIE1(1-108) in pGBKT7-GW, BRC1 fragments and mutants in pGADT7-GW; yeast AH109; medium without Leu, Trp and His with 5 mM 3-AT.

Sequences of proteins named here, by UniProt entry; tags and fusion partners are left off. A change or cut given only in a name is not applied to a line headed by its entry.
UniProt A1YKT1: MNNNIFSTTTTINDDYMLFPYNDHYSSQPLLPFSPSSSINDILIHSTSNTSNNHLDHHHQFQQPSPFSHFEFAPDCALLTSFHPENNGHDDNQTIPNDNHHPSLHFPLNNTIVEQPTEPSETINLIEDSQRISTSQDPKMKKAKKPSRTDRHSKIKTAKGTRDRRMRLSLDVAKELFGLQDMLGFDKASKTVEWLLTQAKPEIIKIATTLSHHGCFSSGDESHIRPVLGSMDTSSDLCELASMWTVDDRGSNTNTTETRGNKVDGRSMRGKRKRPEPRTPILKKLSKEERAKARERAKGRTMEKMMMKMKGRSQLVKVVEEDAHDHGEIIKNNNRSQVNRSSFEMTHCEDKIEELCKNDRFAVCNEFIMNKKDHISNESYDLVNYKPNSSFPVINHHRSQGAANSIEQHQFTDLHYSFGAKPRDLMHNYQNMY

The target of assay [2] is T1, N-terminal 108 amino acid residues of TIE1 fused to GAL4-DBD (Arabidopsis thaliana). The assay is described as follows: two-hybrid; bait DBD-TIE1N in pDEST32, preys AD-BRC1/BRC2 in pDEST22; yeast AH109; SD-Leu-Trp-His with 5 mM 3-AT.
For assay [3] the target is unchanged. The experiment in a line: two-hybrid; yeast two-hybrid screening of an Arabidopsis transcription factor library; bait: N-terminal 108 residues of TIE1.

These are yes or no findings as the source states them, for the method shown. For part of these data: A result given as binding can be weak or reduced; the word gives no strength. Sequences can lack the tags named with a protein.

Take “BRC1 mutant protein tcp^DRV fused to GAL4-AD (from UniProt A1YKT1)”: the binding entry in assay [1] is given as “no binding”.
The same measure, in the same setting: the value for “BRC1 mutant protein tcp^WL fused to GAL4-AD (from UniProt A1YKT1)” was “no binding”; that for “BRC1 mutant protein BRC1mR fused to GAL4-AD (from UniProt A1YKT1)” was “binds”.
As for “BRC2 fused to GAL4-AD (Arabidopsis thaliana)”, the binding result in assay [2] and in assay [3] was “no binding” throughout.
For the substance “BRC1 mutant protein tcp^RDR fused to GAL4-AD (from UniProt A1YKT1)”, in assay [1], the binding result is “no binding”.

The values are drawn from paper PMC5884558.
